US20100267731A1, “USE OF TRANSFORMING GROWTH FACTOR-B RECEPTOR INHIBITORS TO SUPPRESS OCULAR SCARRING” (Summa Health Systems, LLC, priority 2009, published 2010)
Some results were stated once for a whole list of compounds, not compound by compound. At least one compound was matched to its structure with a doubt left.

Test system: New Zealand white rabbits
Assay: Post surgical bleb survival in vivo after GFS
Design: species or system New Zealand white rabbit
Details: rabbit GFS; MMC 0.04% sponge 5 min; SB-505124 5 mg in 65 mg lactose tablet at the surgical site

SMILES: Cc1cccc(-c2[nH]c(C(C)(C)C)nc2-c2ccc3c(c2)OCO3)n1 [SB-505124]
- time filtering blebs were maintained after GFS: at least 10 days
